In article doi:10.1101/2021.02.16.431372:
Results are given in words; binding and its absence hold for the method and conditions named. In cells and extracts the contact can be indirect. Binding can be weak; no strength is given. Tags and fused reporters may be left off the sequences shown.

Target: T1, voltage dependent anion channel 2 (VDAC2) (pig (endogenous in pig sperm)) (UniProt Q9MZ15)
T1 sequence: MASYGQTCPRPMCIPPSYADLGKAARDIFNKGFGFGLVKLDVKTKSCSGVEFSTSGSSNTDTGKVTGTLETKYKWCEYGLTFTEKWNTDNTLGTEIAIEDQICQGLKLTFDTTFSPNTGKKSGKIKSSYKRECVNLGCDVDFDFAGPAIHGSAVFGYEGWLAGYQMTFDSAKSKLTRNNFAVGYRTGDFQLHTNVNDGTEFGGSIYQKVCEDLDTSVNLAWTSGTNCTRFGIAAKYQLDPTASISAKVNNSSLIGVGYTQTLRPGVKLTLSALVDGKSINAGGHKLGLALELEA
Test: cross-linking

binding: binds
Substance: glycerol kinase (GK) (pig (endogenous in pig sperm))
